Results on 22 targets are retold here after the supplement of paper PMC11006884.

Sequences of proteins named here, by UniProt entry; tags and fusion partners are left off. A change or cut given only in a name is not applied to a line headed by its entry.
UniProt O60232: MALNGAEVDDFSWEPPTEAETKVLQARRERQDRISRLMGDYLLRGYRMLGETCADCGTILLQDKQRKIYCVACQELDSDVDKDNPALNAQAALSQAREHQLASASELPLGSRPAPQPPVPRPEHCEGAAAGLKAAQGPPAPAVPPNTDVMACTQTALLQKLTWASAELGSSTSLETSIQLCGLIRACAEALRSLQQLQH
UniProt O43242, whole entry: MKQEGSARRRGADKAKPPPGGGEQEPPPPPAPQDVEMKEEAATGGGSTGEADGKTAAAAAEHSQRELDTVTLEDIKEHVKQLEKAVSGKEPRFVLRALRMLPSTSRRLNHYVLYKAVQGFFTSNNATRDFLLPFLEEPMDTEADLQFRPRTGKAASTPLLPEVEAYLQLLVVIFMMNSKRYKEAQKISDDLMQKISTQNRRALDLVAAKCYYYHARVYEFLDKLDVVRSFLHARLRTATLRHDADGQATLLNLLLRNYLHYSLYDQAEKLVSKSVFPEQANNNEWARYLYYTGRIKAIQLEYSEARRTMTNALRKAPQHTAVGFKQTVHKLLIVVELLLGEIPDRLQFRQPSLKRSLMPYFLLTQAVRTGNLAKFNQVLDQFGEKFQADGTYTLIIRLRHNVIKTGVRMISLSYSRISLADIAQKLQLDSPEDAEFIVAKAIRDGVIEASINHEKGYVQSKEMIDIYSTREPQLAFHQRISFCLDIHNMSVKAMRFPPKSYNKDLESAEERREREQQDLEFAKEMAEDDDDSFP
UniProt O75414: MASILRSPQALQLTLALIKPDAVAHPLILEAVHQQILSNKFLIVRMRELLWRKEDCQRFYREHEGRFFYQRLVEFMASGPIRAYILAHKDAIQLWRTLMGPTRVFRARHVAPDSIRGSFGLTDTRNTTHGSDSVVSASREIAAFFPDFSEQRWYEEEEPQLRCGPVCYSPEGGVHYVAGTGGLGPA
UniProt O75369, whole entry, looked up: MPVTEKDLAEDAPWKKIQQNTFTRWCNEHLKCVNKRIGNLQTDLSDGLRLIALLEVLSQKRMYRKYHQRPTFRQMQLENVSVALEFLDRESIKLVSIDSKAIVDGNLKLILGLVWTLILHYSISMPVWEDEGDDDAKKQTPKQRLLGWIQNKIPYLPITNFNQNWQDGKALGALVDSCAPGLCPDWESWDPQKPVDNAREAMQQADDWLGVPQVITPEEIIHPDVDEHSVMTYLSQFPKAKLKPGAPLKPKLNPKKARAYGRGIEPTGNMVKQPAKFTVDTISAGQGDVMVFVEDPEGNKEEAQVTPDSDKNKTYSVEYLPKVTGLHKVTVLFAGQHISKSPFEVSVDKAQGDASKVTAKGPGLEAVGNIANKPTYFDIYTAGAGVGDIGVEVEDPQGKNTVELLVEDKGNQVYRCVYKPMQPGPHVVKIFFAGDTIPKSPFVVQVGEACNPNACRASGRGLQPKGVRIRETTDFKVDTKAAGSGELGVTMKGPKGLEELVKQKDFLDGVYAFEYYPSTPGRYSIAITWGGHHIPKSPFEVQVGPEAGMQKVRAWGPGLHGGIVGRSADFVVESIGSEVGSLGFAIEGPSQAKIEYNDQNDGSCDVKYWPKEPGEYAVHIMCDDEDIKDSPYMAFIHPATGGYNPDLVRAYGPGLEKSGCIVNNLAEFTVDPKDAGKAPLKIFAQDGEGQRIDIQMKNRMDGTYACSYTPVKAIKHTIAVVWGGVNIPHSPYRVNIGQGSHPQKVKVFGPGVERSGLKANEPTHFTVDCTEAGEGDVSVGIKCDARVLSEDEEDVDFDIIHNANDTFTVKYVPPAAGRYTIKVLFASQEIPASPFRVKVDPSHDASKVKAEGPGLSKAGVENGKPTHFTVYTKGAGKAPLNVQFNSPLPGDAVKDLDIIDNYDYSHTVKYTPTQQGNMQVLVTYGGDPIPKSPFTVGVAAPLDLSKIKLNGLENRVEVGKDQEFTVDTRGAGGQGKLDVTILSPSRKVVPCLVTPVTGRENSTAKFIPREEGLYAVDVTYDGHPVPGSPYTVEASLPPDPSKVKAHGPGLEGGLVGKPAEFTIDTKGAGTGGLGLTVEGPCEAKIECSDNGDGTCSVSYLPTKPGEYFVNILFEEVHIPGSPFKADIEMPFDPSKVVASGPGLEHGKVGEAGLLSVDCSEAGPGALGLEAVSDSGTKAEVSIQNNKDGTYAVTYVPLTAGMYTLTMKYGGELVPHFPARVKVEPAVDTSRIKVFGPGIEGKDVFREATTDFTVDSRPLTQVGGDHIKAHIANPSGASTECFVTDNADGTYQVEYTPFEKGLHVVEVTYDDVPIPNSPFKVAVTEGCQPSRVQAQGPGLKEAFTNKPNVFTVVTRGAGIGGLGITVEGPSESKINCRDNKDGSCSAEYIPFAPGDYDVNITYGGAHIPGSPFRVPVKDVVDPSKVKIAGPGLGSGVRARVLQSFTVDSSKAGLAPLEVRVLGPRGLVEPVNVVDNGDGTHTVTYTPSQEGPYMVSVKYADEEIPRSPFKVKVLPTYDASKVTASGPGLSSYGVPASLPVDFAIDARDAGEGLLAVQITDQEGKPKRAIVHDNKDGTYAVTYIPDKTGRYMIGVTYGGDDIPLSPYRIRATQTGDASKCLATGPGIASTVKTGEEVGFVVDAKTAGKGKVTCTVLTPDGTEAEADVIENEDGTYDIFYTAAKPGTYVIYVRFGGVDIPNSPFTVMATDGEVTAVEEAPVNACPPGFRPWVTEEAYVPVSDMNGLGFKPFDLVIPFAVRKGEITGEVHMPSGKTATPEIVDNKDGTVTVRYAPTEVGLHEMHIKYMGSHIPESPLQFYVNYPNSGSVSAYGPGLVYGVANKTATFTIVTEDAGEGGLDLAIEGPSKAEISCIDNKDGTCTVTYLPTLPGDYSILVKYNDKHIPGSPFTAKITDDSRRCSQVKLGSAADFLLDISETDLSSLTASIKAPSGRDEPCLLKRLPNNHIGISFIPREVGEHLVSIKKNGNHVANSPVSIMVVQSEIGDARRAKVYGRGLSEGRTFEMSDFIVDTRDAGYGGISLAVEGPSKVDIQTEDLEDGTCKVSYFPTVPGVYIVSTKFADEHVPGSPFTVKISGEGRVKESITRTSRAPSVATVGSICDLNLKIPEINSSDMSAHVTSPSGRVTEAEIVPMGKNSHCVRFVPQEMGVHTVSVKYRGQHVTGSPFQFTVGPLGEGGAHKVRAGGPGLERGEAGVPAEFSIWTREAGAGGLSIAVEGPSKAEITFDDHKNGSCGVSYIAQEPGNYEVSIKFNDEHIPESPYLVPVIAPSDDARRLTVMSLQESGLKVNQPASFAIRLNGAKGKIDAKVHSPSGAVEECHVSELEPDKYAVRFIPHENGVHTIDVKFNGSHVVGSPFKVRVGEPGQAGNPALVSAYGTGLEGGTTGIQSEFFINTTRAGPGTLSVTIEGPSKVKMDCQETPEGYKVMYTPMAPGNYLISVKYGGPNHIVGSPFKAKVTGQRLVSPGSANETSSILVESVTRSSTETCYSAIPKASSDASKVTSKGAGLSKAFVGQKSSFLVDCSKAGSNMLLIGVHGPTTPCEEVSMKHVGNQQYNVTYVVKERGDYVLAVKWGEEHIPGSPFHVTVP
UniProt O60291: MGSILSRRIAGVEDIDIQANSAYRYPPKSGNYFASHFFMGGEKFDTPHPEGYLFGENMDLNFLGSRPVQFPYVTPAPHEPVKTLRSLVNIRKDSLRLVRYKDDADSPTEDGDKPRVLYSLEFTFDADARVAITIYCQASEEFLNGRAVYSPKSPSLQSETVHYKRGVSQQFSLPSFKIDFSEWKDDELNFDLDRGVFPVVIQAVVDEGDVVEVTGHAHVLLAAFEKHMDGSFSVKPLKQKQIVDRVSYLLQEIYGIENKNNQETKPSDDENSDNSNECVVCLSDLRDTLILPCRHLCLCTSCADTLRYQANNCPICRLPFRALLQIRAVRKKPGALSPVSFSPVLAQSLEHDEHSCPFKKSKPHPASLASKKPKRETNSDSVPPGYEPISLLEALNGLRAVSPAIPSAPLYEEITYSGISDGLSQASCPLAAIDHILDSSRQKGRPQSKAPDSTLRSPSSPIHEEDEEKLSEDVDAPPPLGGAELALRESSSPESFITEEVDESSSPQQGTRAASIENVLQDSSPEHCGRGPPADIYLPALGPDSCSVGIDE
UniProt O75164: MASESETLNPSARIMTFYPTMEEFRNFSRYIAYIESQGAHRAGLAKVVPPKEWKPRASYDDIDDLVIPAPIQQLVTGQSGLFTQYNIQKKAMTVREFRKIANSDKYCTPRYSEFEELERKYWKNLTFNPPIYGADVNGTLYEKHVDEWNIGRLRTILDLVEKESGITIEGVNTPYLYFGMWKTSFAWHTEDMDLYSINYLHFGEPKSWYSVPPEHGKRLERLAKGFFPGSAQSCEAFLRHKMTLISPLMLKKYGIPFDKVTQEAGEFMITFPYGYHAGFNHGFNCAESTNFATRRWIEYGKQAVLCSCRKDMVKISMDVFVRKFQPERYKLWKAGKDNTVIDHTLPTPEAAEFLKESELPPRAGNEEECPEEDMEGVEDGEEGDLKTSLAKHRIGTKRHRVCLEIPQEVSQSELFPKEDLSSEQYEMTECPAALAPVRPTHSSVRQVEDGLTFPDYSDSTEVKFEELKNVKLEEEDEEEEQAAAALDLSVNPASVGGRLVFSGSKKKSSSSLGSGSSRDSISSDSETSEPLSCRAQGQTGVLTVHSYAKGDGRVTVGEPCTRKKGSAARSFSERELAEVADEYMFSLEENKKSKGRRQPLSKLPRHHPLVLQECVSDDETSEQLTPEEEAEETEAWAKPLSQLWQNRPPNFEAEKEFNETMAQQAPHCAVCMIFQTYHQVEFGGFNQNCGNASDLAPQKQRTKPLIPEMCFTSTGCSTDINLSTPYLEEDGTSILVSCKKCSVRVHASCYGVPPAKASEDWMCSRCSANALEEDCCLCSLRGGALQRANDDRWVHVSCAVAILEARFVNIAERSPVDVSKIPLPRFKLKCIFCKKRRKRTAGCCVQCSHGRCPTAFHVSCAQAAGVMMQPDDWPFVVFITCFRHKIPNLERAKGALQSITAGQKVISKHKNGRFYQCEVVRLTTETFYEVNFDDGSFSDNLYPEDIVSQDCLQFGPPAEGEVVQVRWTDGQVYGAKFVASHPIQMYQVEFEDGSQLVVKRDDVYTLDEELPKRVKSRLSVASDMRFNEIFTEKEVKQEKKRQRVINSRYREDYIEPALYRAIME
UniProt O60313: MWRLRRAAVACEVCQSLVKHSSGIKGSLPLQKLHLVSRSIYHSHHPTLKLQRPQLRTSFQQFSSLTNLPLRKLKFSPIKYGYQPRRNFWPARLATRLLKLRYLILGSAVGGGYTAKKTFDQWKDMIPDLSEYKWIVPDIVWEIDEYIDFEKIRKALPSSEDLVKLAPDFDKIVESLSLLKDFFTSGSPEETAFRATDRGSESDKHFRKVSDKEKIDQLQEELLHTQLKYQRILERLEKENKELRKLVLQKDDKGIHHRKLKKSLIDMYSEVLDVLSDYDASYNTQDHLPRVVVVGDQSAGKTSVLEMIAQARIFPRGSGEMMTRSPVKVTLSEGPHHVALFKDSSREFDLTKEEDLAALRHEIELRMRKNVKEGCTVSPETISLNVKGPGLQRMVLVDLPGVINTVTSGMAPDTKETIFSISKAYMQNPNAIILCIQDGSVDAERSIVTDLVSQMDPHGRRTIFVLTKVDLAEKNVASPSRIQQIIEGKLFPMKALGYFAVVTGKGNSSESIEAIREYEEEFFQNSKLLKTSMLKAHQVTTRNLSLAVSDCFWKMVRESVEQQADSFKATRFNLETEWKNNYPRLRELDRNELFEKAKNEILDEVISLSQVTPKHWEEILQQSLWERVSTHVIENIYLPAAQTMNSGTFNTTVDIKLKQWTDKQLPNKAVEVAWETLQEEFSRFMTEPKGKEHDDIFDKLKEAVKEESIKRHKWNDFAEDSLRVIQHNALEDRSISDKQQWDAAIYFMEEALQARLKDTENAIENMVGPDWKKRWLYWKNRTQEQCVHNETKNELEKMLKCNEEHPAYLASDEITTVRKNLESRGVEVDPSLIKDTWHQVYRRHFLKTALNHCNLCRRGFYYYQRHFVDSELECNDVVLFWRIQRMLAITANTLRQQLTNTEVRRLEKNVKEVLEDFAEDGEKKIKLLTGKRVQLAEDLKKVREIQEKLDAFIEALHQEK
UniProt O43929: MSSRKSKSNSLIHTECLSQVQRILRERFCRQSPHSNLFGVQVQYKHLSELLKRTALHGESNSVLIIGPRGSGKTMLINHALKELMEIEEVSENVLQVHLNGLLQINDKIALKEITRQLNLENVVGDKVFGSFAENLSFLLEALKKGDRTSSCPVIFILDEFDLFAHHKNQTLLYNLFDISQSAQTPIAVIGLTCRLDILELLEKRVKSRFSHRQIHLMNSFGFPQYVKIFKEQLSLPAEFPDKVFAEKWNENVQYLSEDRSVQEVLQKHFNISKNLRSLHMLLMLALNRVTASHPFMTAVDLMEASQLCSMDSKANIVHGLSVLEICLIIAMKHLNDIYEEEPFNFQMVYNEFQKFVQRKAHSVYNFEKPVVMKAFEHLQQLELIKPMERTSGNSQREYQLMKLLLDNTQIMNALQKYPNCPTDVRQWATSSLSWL

This is a selection; strong and weak results do not stand in their true shares.

Compound in this test: COC(=O)C#Cc1ccccc1 [methyl 3-phenylpropiolate]
Put plainly: log2 ratio of iodoacetamide-alkyne labeling of the cysteine site, DMSO over compound (competition); higher = stronger covalent engagement of the cysteine by the compound, active = 1 or more. The note with it: 500 µM; treatment time 1 h; system: HEK293T cell lysate. Summed up: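 Three replicates, each with duplicate channels, were prepared from HEK293T lysate (2 mg/mL) treated with vehicle or electrophile at 500 µM for 1 h at ambient temperature. Iodoacetamide alkyne was then applied for 1 h, and samples were clicked to sCIP-TMT reagents, pooled, trypsin-digested overnight at 37 °C, enriched on streptavidin, acid-eluted and analysed on Orbitrap Eclipse LC-MS/MS with FAIMS, with FragPipe quantification. The log2 competition ratio per cysteine is the mean control-channel divided by the mean compound-channel reporter intensity. Cysteines quantified in only one replicate were left out.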
With PRPSAP2 C31 (UniProt O60256), the “log2 ratio of iodoacetamide-alkyne labeling” value (from here on “log2 ratio”) is inactive: 0.239. For the target PSMD10 C4 (UniProt O75832), the “log2 ratio” value was inactive: 0.241. As for UGDH C241 (UniProt O60701), the figure is inactive: -0.0621; as for UniProt O60610_C314, inactive: -0.564. As for UTP20 C2058 (UniProt O75691), the figure is inactive: 0.539; as for UniProt O60232_C53, inactive: 0.206; as for PSMD3 C483 (UniProt O43242), inactive: 0.233. To AKAP8 C85 (UniProt O43823) belongs inactive: 0.633; to NME6 C167 (UniProt O75414), inactive: 0.347; to BUB3 C129 (UniProt O43684), inactive: 0.176.

Take FLNB C660 (UniProt O75369): the “log2 ratio” value was inactive: 0.476. Turning to MGRN1 C428 (UniProt O60291), the “log2 ratio” value is inactive: 0.472.

Turning to UniProt O75164_C533, the “log2 ratio” value was inactive: 0.679. As for NPM3 C105 (UniProt O75607), the figure is inactive: 0.636; as for SNRNP200 C502 (UniProt O75643), inactive: 0.356. Turning to HTATSF1 C462 (UniProt O43719), the “log2 ratio” value is active: 1.14. To OPA1 C375 (UniProt O60313) belongs inactive: 0.235; to CUTA C96 (UniProt O60888), inactive: -0.0413. In the case of AKAP8 C173 (UniProt O43823), the “log2 ratio” value is inactive: 0.65.

In the case of UniProt O43929_C16, the “log2 ratio” value is inactive: 0.153. To UniProt O60232_C73 belongs inactive: 0.131.

Consider URB1 C1163 (UniProt O60287), for which the “log2 ratio” value was inactive: 0.114.
